These are yes or no findings as the source states them, for the method shown. Binding seen in cells or lysates may run through a third protein.
Biological target: LSR-GFP (mouse lipolysis-stimulated lipoprotein receptor fused to GFP) (mouse) (UniProt Q99KG5)
Experiment: co-IP; lysates of EpH4 cells transfected with LSR-GFP (72 h) immunoprecipitated with anti-GFP or normal rabbit IgG antibody, immunoblot with anti-GFP or anti-Pyk2 antibody; carried out as described in ref. 15

The chains behind the UniProt entries cited, without tags or fusion partners. Where a name states a change or a piece, a line headed by the entry shows the natural chain unless it says otherwise.
UniProt Q99KG5: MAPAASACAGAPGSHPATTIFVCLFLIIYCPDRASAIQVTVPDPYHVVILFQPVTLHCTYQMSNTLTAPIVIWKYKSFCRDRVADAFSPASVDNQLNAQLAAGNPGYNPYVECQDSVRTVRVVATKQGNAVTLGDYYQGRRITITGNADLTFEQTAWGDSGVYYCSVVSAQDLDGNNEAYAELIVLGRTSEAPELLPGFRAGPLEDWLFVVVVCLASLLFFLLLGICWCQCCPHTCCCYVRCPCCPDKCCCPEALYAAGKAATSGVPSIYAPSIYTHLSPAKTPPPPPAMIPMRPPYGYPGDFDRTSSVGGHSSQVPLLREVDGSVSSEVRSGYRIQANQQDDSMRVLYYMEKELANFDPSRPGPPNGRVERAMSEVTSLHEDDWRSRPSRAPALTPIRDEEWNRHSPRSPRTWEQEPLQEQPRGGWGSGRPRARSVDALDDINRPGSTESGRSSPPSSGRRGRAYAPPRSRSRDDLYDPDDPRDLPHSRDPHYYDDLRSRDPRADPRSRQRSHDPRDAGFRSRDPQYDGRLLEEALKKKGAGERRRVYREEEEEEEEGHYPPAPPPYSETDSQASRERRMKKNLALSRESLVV
UniProt Q9QVP9: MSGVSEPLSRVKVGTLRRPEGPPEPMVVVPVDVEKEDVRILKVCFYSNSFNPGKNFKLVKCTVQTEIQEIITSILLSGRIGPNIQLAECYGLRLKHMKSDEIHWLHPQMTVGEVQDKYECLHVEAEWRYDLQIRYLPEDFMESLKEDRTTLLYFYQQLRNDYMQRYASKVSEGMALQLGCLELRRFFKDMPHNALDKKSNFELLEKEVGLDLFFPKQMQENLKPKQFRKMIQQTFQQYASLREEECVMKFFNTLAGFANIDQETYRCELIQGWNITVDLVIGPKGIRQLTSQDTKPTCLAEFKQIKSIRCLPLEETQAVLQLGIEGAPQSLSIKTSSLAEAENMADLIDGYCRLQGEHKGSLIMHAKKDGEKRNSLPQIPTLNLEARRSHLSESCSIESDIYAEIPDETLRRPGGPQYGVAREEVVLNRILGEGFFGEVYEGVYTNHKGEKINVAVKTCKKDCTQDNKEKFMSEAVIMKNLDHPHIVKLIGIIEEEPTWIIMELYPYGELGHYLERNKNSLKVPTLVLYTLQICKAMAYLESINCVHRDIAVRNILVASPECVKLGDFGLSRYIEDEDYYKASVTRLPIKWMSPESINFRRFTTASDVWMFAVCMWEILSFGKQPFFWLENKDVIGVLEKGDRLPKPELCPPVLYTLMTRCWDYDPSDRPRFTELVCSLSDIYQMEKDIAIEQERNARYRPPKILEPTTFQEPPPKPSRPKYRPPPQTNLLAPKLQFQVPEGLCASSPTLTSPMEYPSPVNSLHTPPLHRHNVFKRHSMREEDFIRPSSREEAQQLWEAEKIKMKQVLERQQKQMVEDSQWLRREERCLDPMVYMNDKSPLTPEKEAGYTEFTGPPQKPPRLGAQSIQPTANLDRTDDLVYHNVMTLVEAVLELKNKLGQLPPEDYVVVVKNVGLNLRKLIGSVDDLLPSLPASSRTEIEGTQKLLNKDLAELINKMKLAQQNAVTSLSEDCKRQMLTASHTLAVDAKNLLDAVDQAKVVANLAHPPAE

Pyk2 (nonreceptor tyrosine kinase) (from UniProt Q9QVP9 1-1009) (enzyme)
binding: no binding

— publication PMC6773211
